Experimental data: paper PMC12670160, “A drug-repurposing screen of FDA- and EMA-approved drugs identifies two NF-κB inhibitors active against eumycetoma” (Journal of Antimicrobial Chemotherapy, 2025)
Structures can show the parent of a compound that is named as a salt. In all, about 5,300 compounds went through this assay and about 130 (2.5%) showed an effect of 50% or more. Some of the results follow.

System: M. mycetomatis strain mm55
Conditions: primary screen, metabolic activity vs growth control; 96 h, 2 µM; inhibitor

SMILES	% viability [%]
NCCCS(=O)(=O)O [ONC0000618, tramiprosate]	89.13
O=C(O)/C(Cc1ccccc1[N+](=O)[O-])=N/Nc1nc(-c2ccc(Cl)c(Cl)c2)cs1 [ONC0005147, 4egi1]	73.1
OCCN1CCN(CC/C=C2/c3ccccc3Sc3ccc(Cl)cc32)CC1 [ONC0002933, zuclopenthixol]	62.33
COc1ncc(-c2ccc3c(Nc4cc(Oc5cc(F)cc(F)c5)cc(C(=O)O)c4)c(S(=O)(=O)NC4CC4)cnc3c2)c(OC)n1 [ONC0003006, gsk2837808a]	114.3
CN1c2ccccc2C(=O)N2CCc3c([nH]c4ccccc34)C21 (centres unmarked) [ONC0004635, evodiamine isoevodiamine]	83.5
Cc1c(S(=O)(=O)O)oc2c1C(=O)C(=O)c1c-2ccc2c1CCCC2(C)C [ONC0003377, sodiumtanshinoneiiasulfonate]	55.5
O=C(Nc1ccc(CN2CCOCC2)cc1)c1ccc(-c2cccc(Cl)c2)o1 [ONC0004432, cid2011756]	129.3
CN1CCC(=C2c3ccccc3CCn3c(C=O)cnc32)CC1 [ONC0001247, alcaftadine]	70.43
O=C(c1c(O)nc2cc(Cl)ccc2c1O)C1CC1 [ONC0001535, l701252]	138.4
CO/N=C(/C(=O)NC1C(=O)N2C(C(=O)O)=C(C[N+]3(C)CCCC3)CSC12)c1csc(N)n1 (centres unmarked) [ONC0000506, cefepime hydrochloride]	66.95
CN(C)CCOC(=O)C(c1ccccc1)C1(O)CCCC1 (centres unmarked) [ONC0000325, cyclopentolate hydrochloride]	84.51
CCc1cc(Cl)c(OC)c(C(=O)NC[C@@H]2CCCN2CC)c1O [ONC0001424, eticlopride]	68.41
C[C@H](N[C@@H](CCc1ccccc1)C(=O)O)C(=O)N1Cc2ccccc2C[C@H]1C(=O)O [ONC0003902, quinaprilat]	69.09
Nc1ccc(/N=N/c2ccccc2)c(N)n1 [ONC0000525, phenazopyridine hydrochloride]	72.77
O=C(O)C(=O)c1cn(Cc2ccccc2)c2ccc(-c3ccc(OC(F)(F)F)cc3)cc12 [ONC0001812, tiplaxtinin]	83.56
NS(=O)(=O)c1nn2cc(-c3ccccc3)nc2s1 [ONC0002993, aeg3482]	108
C[C@]12CC[C@H](O)CC1=CC[C@@H]1[C@@H]2CC[C@]2(C)C(c3cccnc3)=CC[C@@H]12 [ONC0004582, abiraterone cb7598]	96.97
COc1ccc(CCC(=O)c2c(O)cc(O[C@@H]3O[C@H](CO)[C@@H](O)[C@H](O)[C@H]3O[C@@H]3O[C@@H](C)[C@H](O)[C@@H](O)[C@H]3O)cc2O)cc1O [ONC0004619, neohesperidin dihydrochalcone nhdc]	85.5
CC(C)(C)CC(C)(C)c1ccc(OCCOCC[N+](C)(C)Cc2ccccc2)cc1 [ONC0003268, benzethonium chloride]	86.04

SMILES	% viability [%]
CN1[C@@H]2CC[C@H]1C[C@@H](OC(=O)C(O)c1ccccc1)C2 (some centres unmarked) [ONC0005193, homatropine bromide]	73.37
Cn1nnc2c(C(N)=O)ncn2c1=O [ONC0004139, temozolomide]	66.38
CCOC(=O)C(C)Oc1cccc2c(=O)n(CC(=O)Nc3ccc4c(c3)OCCO4)ccc12 (centres unmarked) [ONC0002590, sid7969543]	95.64
CC(C)(C)c1cc(C(C)(C)C)c2c(c1)C(O)(C(F)(F)F)C(=O)O2 (centres unmarked) [ONC0001539, racbhff]	123.7
O=[N+]([O-])c1cn2c(n1)OC[C@@H](OCc1ccc(OC(F)(F)F)cc1)C2 [ONC0004906, pa824]	123
C=C1C(=O)O[C@H]2[C@H]1CC/C(C)=C/CC[C@@]1(C)O[C@@H]21 [ONC0001468, parthenolide]	67.75
O=C(O)COc1ccc(C(=O)c2cccs2)c(Cl)c1Cl [ONC0005562, tienilicacid]	90.07
CO[C@H]1C[C@H](O[C@H]2CC[C@@]3(C)[C@H](CC[C@@H]4[C@@H]3CC[C@]3(C)[C@@H](C5=CC(=O)OC5)[C@@H](OC(C)=O)C[C@]43O)C2)O[C@@H](C)[C@@H]1O [ONC0000896, oleandrin]	70.17
COc1ccc(CCC(=O)Nc2nc3ccc(Cl)cc3s2)cc1OC [ONC0005171, ky02111]	58.49
COc1ccc(-c2cc3nccn3c(Nc3ncccc3C(N)=O)n2)cc1OC [ONC0000957, bay 613606 dihydrochloride]	65.94
CCCCOc1ccc(C(=O)CCN2CCCCC2)cc1 [ONC0001893, dyclonine hydrochloride]	83.01
C(#CCN1CCCC1)CN1CCCC1 [ONC0002338, tremorine]	70.93
C=C1CC[C@H](O)C/C1=C/C=C1\CCC[C@]2(C)[C@@H]([C@H](C)/C=C/[C@H](C)C(C)C)CC[C@@H]12 [ONC0000692, ergocalciferol]	131.4
NC[C@H]1O[C@H](O[C@H]2C(O[C@@H]3O[C@H](CO)[C@@H](O)[C@H]3O)[C@@H](O)[C@H](N)C[C@@H]2N)[C@H](N)[C@@H](O)[C@@H]1O (some centres unmarked) [ONC0002301, ribostamycin sulfate]	111.7
Nc1nc(N)c2nc(-c3ccccc3)c(N)nc2n1 [ONC0003185, triamterene]	100.4
OC(Cc1ccncc1)C(Cl)(Cl)Cl (centres unmarked) [ONC0002727, petcm]	75.56
CCCc1c(OCCCOc2ccc(OCC(=O)O)cc2)ccc(CC=O)c1O [ONC0000202, l165041]	106.2
CS(=O)(=O)Nc1ccc(Cc2noc(-c3ccc4[nH]cc(CCN)c4c3)n2)cc1 [ONC0000195, l694247]	90.61
Cc1ccc(C(=O)N(CCCN)[C@@H](c2oc3cc(Cl)ccc3c(=O)c2Cc2ccccc2)C(C)C)cc1 [ONC0000201, sb743921]	74.97

A second format for part of the listing above:
SMILES | % viability [%]
CCc1cc(Cl)c(OC)c(C(=O)NC[C@@H]2CCCN2CC)c1O [ONC0001424, eticlopride] | 68.41
C[C@H](N[C@@H](CCc1ccccc1)C(=O)O)C(=O)N1Cc2ccccc2C[C@H]1C(=O)O [ONC0003902, quinaprilat] | 69.09
